Assay: recovery of fenvalerate from spiked dark tea samples by ELISA with McAb secreted by 1B6
[1] = Enshi dark tea, spiked 25 ng/mL
[2] = Enshi dark tea, spiked 50 ng/mL
[3] = Enshi dark tea, spiked 100 ng/mL
[4] = Qingzhuan tea, spiked 100 ng/mL
[5] = Selenium-enriched Enshi dark tea, spiked 25 ng/mL
[6] = Selenium-enriched Enshi dark tea, spiked 50 ng/mL
[7] = Selenium-enriched Enshi dark tea, spiked 100 ng/mL

CC(C)C(C(=O)OC(C#N)c1cccc(Oc2ccccc2)c1)c1ccc(Cl)cc1 (centres unmarked) [Fenvalerate]
Measured [1]: 18.3 ng/mL | Recovery [1]: 73.2% | Measured [2]: 47.2 ng/mL | Recovery [2]: 94.4% | Measured [3]: 96.8 ng/mL | Recovery [3]: 96.8% | Measured (Fu Brick tea, spiked 25 ng/mL): 21.1 ng/mL | Recovery (Fu Brick tea, spiked 25 ng/mL): 84.4% | Measured (Fu Brick tea, spiked 50 ng/mL): 48.3 ng/mL | Recovery (Fu Brick tea, spiked 50 ng/mL): 96.6% | Measured (Fu Brick tea, spiked 100 ng/mL): 97.5 ng/mL | Recovery (Fu Brick tea, spiked 100 ng/mL): 97.5% | Measured (Liupao tea, spiked 25 ng/mL): 22.2 ng/mL | Recovery (Liupao tea, spiked 25 ng/mL): 88.8% | Measured (Liupao tea, spiked 50 ng/mL): 46.5 ng/mL | Recovery (Liupao tea, spiked 50 ng/mL): 93% | Measured (Liupao tea, spiked 100 ng/mL): 96.7 ng/mL | Recovery (Liupao tea, spiked 100 ng/mL): 96.7% | Measured (Pu‘er tea, spiked 25 ng/mL): 19.2 ng/mL | Recovery (Pu‘er tea, spiked 25 ng/mL): 76.8% | Measured (Pu‘er tea, spiked 50 ng/mL): 45.1 ng/mL | Recovery (Pu‘er tea, spiked 50 ng/mL): 90.2% | Measured (Pu‘er tea, spiked 100 ng/mL): 99.8 ng/mL | Recovery (Pu‘er tea, spiked 100 ng/mL): 99.8% | Measured (Qingzhuan tea, spiked 25 ng/mL): 21.8 ng/mL | Recovery (Qingzhuan tea, spiked 25 ng/mL): 87.2% | Measured (Qingzhuan tea, spiked 50 ng/mL): 44.8 ng/mL | Recovery (Qingzhuan tea, spiked 50 ng/mL): 89.6% | Measured [4]: 98.5 ng/mL | Recovery [4]: 98.5% | Measured [5]: 18.6 ng/mL | Recovery [5]: 74.4% | Measured [6]: 47.9 ng/mL | Recovery [6]: 95.8% | Measured [7]: 99.3 ng/mL | Recovery [7]: 99.3% | Recovery (dark teas, added Fen standard 25 ng/mL): 73.2–88.8% | Recovery (dark teas, added Fen standard 100 ng/mL): 96.7–99.8%

Source: PMC10001202, “Preparation, Identification and Preliminary Application of the Fenvalerate Monoclonal Antibody in Six Kinds of Dark Tea” (Foods, 2023)
